Values from PubChem BioAssay AID1159584 (Peter MacCallum Cancer Centre, 2016)
The deposit covers about 18,000 reagents; shown is a random part of them. Not given: the amount of reagent, the time to read-out.

- Aim: 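Genes whose loss is lethal only together with E-cadherin loss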 (primary screen)
- Cells: human MCF10A breast epithelial cells, parental and CDH1-null
- Reagents: siRNA against human genes
- Measurement: 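Cell viability by CellTiter-Glo ATP luminescence, each line scaled to the mean of mock wells across plates, then CDH1-null over parental ratio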
- Reading the numbers: CDH1-null / parental viability ratio: higher = CDH1-null cells survive relatively better than parental; CDH1-null viability vs mock: higher = more viable CDH1-null cells; parental viability vs mock: higher = more viable parental cells

gene symbol	CDH1-null / parental viability ratio	CDH1-null viability vs mock (fraction of mock)	parental viability vs mock (fraction of mock)
HRNR (hornerin)	0.99	0.7	0.71
LRRIQ4 (leucine rich repeats and IQ motif containing 4)	0.83	0.52	0.63
ERO1A (endoplasmic reticulum oxidoreductase 1 alpha)	1.09	1.02	0.94
ODF2L (outer dense fiber of sperm tails 2 like)	1	0.92	0.92
MIS18BP1 (MIS18 binding protein 1)	0.88	0.72	0.82
CCNJL (cyclin J like)	1.06	0.7	0.66
TRIM16 (tripartite motif containing 16)	1.36	1.14	0.84
SIGLEC15 (sialic acid binding Ig like lectin 15)	1.06	0.54	0.51
LINC02908 (long independently transcribed non-coding RNA 2908)	1.39	0.71	0.51
ORC6 (origin recognition complex subunit 6)	0.92	1.08	1.18
KLK8 (kallikrein related peptidase 8)	1	0.82	0.82
GRM6 (glutamate metabotropic receptor 6)	0.85	0.94	1.11
CIART (circadian associated repressor of transcription)	0.92	0.44	0.48
OR10A5 (olfactory receptor family 10 subfamily A member 5)	0.77	0.34	0.44
ATP6V1F (ATPase H+ transporting V1 subunit F)	1.12	0.96	0.86
CNOT7 (CCR4-NOT transcription complex subunit 7)	1.1	0.89	0.81
GPR42 (G protein-coupled receptor 42)	1.39	0.93	0.67
DOHH (deoxyhypusine hydroxylase)	1.12	1.02	0.91
ACER3 (alkaline ceramidase 3)	1.11	0.97	0.87
TAF4 (TATA-box binding protein associated factor 4)	1.03	0.39	0.38
PGBD1 (piggyBac transposable element derived 1)	1.06	1.04	0.98
ZNF45 (zinc finger protein 45)	1.07	1.17	1.09
NCMAP (non-compact myelin associated protein)	1.12	0.72	0.64
NOP2 (NOP2 nucleolar protein)	0.73	0.51	0.7
RAB3GAP2 (RAB3 GTPase activating non-catalytic protein subunit 2)	1.07	0.92	0.86
ZNF575 (zinc finger protein 575)	1.15	0.94	0.82
EDC4 (enhancer of mRNA decapping 4)	0.7	0.5	0.71
PACS2 (phosphofurin acidic cluster sorting protein 2)	1.02	1.09	1.07
JUND (JunD proto-oncogene, AP-1 transcription factor subunit)	0.96	0.74	0.77
TNFSF14 (TNF superfamily member 14)	0.95	0.71	0.75
MCM7 (minichromosome maintenance complex component 7)	1.05	1.04	0.99
STX18 (syntaxin 18)	0.97	0.97	1
MAP9 (microtubule associated protein 9)	1.02	1.1	1.08
CYP4Z1 (cytochrome P450 family 4 subfamily Z member 1)	0.97	0.86	0.89
UNCX (UNC homeobox)	1.05	0.92	0.88
ATMIN (ATM interactor)	0.8	0.7	0.88
CRHR2 (corticotropin releasing hormone receptor 2)	0.71	0.77	1.08
FAM3D (FAM3 metabolism regulating signaling molecule D)	1	0.85	0.85
SERPINA5 (serpin family A member 5)	0.99	0.85	0.86
NUDT8 (nudix hydrolase 8)	1.18	0.9	0.76
ZFP41 (ZFP41 zinc finger protein)	1.1	1.08	0.98
USP3 (ubiquitin specific peptidase 3)	1.2	0.72	0.6
ATP1B3 (ATPase Na+/K+ transporting subunit beta 3)	0.88	0.6	0.68
LRR1 (leucine rich repeat protein 1)	0.92	0.98	1.06
ATR (ATR checkpoint kinase)	1	0.84	0.84

Reformatted: entries from further up.
{"gene symbol": "LINC02908 (long independently transcribed non-coding RNA 2908)", "CDH1-null / parental viability ratio": 1.39, "CDH1-null viability vs mock (fraction of mock)": 0.71, "parental viability vs mock (fraction of mock)": 0.51}
{"gene symbol": "ORC6 (origin recognition complex subunit 6)", "CDH1-null / parental viability ratio": 0.92, "CDH1-null viability vs mock (fraction of mock)": 1.08, "parental viability vs mock (fraction of mock)": 1.18}
{"gene symbol": "KLK8 (kallikrein related peptidase 8)", "CDH1-null / parental viability ratio": 1, "CDH1-null viability vs mock (fraction of mock)": 0.82, "parental viability vs mock (fraction of mock)": 0.82}
{"gene symbol": "GRM6 (glutamate metabotropic receptor 6)", "CDH1-null / parental viability ratio": 0.85, "CDH1-null viability vs mock (fraction of mock)": 0.94, "parental viability vs mock (fraction of mock)": 1.11}

More records:
gene symbol	CDH1-null / parental viability ratio	CDH1-null viability vs mock (fraction of mock)	parental viability vs mock (fraction of mock)
C4orf17 (chromosome 4 open reading frame 17)	1	0.94	0.94
TMEM147 (transmembrane protein 147)	1.12	0.72	0.64
SPATS2L (spermatogenesis associated serine rich 2 like)	1.21	0.94	0.78
GDAP2 (ganglioside induced differentiation associated protein 2)	0.89	0.62	0.7
ATP2B3 (ATPase plasma membrane Ca2+ transporting 3)	0.87	0.86	0.99
CERS3 (ceramide synthase 3)	0.69	0.58	0.84
OGT (O-linked N-acetylglucosamine (GlcNAc) transferase)	1	0.8	0.8
BABAM1 (BRISC and BRCA1 A complex member 1)	1.09	0.94	0.86
CTSH (cathepsin H)	1.1	0.68	0.62
ISG20 (interferon stimulated exonuclease gene 20)	0.99	0.76	0.77
OR10J5 (olfactory receptor family 10 subfamily J member 5)	0.9	0.72	0.8
MAPKAPK2 (MAPK activated protein kinase 2)	0.96	0.79	0.82
DPP10 (dipeptidyl peptidase like 10)	1.09	0.84	0.77
DIRAS1 (DIRAS family GTPase 1)	0.68	0.46	0.68
DRP2 (dystrophin related protein 2)	0.8	0.78	0.98
RYBP (RING1 and YY1 binding protein)	0.99	0.96	0.97
ZNF425 (zinc finger protein 425)	0.66	0.46	0.7
HNF1A (HNF1 homeobox A)	1.26	0.91	0.72
RBPJL	0.95	0.88	0.93
NDST3 (N-deacetylase and N-sulfotransferase 3)	0.8	0.48	0.6
AHRR (aryl hydrocarbon receptor repressor)	1.07	0.88	0.82
CTSK (cathepsin K)	1.18	0.8	0.68
DNAJC11 (DnaJ heat shock protein family (Hsp40) member C11)	0.66	0.38	0.58
ECE1 (endothelin converting enzyme 1)	1.23	0.7	0.57
HK3 (hexokinase 3)	0.89	0.93	1.04
POU2AF2 (POU class 2 homeobox associating factor 2)	0.98	1	1.02
SPTSSB (serine palmitoyltransferase small subunit B)	0.94	1.02	1.08
WNT9A (Wnt family member 9A)	0.95	0.8	0.84
ADCYAP1 (adenylate cyclase activating polypeptide 1)	0.85	0.58	0.68
NRG4 (neuregulin 4)	0.98	0.94	0.96
ZNF85 (zinc finger protein 85)	0.96	0.46	0.48
ZFYVE19 (zinc finger FYVE-type containing 19)	1.21	0.58	0.48
TMCO5A (transmembrane and coiled-coil domains 5A)	0.83	0.4	0.48
CPSF6 (cleavage and polyadenylation specific factor 6)	1.23	0.59	0.48
IAH1 (isoamyl acetate hydrolyzing esterase 1 (putative))	1.55	0.79	0.51
FYTTD1 (forty-two-three domain containing 1)	0.85	0.7	0.82
PSMD9 (proteasome 26S subunit, non-ATPase 9)	1.09	0.61	0.56
OPN1MW (opsin 1, medium wave sensitive)	1.39	0.79	0.57
SGTB	0.78	0.84	1.08
ARRB1 (arrestin beta 1)	1.18	0.92	0.78
METRNL (meteorin like, glial cell differentiation regulator)	0.73	0.46	0.63
PPP1R7 (protein phosphatase 1 regulatory subunit 7)	1.61	0.87	0.54
